# Measurements as given in patent US20180362587A1, “Compositions and Methods for Inhibiting CBP80 Binding to PGC1 Family of Co-Activators” (University of Rochester, priority 2015, published 2018).
# These are yes or no findings as the source states them, for the method shown. Some binding calls cover weakened binding; strength is not graded here.
# T1: CBP80/CBP20 complex (human, UniProt Q09161 20-790; P52298 1-156, limits assumed)
# T1 construct: Used in the fluorescence polarization assays; In the crystal it also carried the cap analogue (m7GpppG / m7GpppA); also called CBC complex; CBC
# T1 sequence (looked up) 1: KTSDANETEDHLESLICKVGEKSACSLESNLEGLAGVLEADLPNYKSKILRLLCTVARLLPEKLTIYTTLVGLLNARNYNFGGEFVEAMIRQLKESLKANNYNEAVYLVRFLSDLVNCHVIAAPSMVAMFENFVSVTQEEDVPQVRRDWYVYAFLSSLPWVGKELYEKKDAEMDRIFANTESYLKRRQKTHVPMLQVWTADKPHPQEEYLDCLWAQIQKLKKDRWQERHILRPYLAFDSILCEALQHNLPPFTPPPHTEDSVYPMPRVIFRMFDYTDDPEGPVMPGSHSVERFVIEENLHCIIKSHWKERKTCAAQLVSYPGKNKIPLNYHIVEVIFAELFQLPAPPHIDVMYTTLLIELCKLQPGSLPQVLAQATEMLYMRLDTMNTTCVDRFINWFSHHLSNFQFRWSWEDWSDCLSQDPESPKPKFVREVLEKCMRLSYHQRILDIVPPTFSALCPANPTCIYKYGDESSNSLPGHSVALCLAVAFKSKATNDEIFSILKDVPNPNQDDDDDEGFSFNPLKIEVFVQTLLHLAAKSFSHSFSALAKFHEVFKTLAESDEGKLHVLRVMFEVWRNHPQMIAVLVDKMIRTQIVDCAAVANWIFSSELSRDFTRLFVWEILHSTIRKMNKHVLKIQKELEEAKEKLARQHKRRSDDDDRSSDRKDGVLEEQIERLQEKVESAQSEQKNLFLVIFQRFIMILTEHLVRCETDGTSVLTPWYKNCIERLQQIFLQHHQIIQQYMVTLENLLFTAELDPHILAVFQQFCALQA
# T1 sequence (looked up) 2: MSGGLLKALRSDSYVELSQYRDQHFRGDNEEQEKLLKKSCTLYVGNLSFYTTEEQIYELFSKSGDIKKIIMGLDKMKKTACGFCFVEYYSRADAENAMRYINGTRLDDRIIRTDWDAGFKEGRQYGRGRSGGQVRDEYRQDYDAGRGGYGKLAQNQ
# Target: T1, CBP80/CBP20 complex
# Test: FP competition assay
row,binding,Binder
1,binds,SLDFDSLLKEAQRSLRR (N-terminal acetyl; C-terminal amide) [PGC1α-Cterm (Ac-…-NH2)]
2,binds,MAFDSLLKNAAQS (N-terminal acetyl; C-terminal amide) [PGC1β-14 (Ac-…-NH2)]
3,binds,SLDFDDLLKQAQKNLRR (N-terminal acetyl; C-terminal amide) [PRC-Cterm (Ac-…-NH2)]
4,binds,MAFDSLLKNAAAS (N-terminal acetyl; C-terminal amide) [PGC1β-13 (Ac-…-NH2)]
5,binds,MAFDSLLKAAQQS (N-terminal acetyl; C-terminal amide) [PGC1β-15 (Ac-…-NH2)]
6,binds,MAFDSMLKAAQQS (N-terminal acetyl; C-terminal amide) [PGC1β-17 (Ac-…-NH2)]
